Reference: PMC6547884, “Molecular Basis for poly(A) RNP Architecture and Recognition by the Pan2-Pan3 Deadenylase” (Cell, 2019)
These are yes or no findings as the source states them, for the method shown. Some binding calls cover weakened binding; strength is not graded here. For some assays here: Where a sequence is shown, tags or fusion partners need not be part of it.

T1: Pan3ΔZn (Pan3Δ[1-74]) (S. cerevisiae) (UniProt P36102)
T1 sequence: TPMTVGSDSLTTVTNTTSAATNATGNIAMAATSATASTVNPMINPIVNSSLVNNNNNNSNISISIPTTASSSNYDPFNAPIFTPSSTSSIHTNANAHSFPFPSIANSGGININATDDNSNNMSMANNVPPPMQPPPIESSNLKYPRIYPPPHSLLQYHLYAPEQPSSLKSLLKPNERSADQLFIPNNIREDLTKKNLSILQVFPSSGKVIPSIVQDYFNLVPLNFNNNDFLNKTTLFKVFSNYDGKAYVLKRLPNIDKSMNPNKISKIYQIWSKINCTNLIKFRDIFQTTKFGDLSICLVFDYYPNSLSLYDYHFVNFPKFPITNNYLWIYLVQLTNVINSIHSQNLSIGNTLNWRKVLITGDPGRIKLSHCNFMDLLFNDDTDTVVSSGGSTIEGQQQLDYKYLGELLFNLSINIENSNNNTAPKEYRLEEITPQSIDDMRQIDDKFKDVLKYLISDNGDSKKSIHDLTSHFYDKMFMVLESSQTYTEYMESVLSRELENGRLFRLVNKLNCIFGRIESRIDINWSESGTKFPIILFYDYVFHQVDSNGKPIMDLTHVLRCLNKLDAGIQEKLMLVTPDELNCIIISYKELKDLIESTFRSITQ

T2: Pan3Δ(1-162) (S. cerevisiae) (UniProt P36102)
T2 sequence: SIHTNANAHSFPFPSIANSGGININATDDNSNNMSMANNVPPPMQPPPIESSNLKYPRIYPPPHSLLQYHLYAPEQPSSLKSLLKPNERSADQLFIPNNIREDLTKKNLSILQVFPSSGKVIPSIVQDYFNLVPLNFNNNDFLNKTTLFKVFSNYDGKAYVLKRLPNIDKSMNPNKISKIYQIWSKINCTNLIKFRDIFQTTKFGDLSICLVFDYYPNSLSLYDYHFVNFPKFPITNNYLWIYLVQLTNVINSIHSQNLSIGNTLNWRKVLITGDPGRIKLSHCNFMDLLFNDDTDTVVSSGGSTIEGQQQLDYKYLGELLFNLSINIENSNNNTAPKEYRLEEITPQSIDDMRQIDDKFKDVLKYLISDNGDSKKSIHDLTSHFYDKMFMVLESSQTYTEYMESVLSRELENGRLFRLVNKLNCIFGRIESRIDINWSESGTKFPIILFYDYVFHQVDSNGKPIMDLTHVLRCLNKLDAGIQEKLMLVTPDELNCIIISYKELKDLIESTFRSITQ

T3: Pan3 (S. cerevisiae, C-terminal deca-histidine tag) (S. cerevisiae) (UniProt P36102)
T3 sequence: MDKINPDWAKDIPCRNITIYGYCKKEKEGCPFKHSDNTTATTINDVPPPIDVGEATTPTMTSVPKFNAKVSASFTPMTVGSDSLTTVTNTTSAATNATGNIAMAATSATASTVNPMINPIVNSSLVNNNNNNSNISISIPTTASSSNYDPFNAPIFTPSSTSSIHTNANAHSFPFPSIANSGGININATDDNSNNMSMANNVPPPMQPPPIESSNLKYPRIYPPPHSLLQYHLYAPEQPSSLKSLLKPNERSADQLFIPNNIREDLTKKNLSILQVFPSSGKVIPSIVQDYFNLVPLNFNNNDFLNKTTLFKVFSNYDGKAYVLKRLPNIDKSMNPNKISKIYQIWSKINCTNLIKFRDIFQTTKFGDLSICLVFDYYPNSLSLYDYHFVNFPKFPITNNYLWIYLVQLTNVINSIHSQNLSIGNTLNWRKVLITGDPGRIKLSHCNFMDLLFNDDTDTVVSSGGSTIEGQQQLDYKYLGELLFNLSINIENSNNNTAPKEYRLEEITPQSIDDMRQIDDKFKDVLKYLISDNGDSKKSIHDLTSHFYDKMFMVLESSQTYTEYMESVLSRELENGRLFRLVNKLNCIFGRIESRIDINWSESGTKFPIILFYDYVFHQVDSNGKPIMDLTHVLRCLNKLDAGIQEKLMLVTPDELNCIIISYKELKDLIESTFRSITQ

T4: Pan3Δ(1–138) (S. cerevisiae) (UniProt P36102)
T4 sequence: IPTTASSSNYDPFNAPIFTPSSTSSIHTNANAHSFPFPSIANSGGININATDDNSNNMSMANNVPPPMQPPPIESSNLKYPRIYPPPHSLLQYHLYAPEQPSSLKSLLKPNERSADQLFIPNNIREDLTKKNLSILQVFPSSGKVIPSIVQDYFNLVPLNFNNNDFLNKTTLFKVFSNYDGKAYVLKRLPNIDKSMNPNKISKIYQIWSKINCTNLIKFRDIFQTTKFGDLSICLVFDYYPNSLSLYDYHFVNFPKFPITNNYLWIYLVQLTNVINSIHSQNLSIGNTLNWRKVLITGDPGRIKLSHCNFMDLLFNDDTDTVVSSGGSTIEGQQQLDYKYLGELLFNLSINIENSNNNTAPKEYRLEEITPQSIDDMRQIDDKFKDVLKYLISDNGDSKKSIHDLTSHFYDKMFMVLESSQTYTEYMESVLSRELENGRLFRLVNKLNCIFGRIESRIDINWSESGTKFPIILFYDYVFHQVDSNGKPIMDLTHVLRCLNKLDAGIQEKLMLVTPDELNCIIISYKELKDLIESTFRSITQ


Tests used:
[1] = target: T1, Pan3ΔZn (Pan3Δ[1-74]) (S. cerevisiae); assay: co-purification (IMAC, ion exchange, gel filtration); Pan2 and Pan3 variants co-expressed in insect cells; purified via the C-terminal deca-histidine tag on Pan3, then Mono Q and Superdex200 (20 mM HEPES pH 7.5, 200 mM NaCl)
[2] = target: T2, Pan3Δ(1-162) (S. cerevisiae); assay: cryo-EM structure; substrate-free Pan2cat-Pan3Δ(1-162); Volta phase plate; nominal global resolution about 4.5 Å; both purified
[3] = target: T3, Pan3 (S. cerevisiae, C-terminal deca-histidine tag) (S. cerevisiae); assay: cryo-EM structure; Pan2cat-Pan3 with 90A RNA and three Pab1, reconstituted as for SEC and purified on Superose 6; overall nominal resolution 4.8 Å, focused maps 4.7 and 4.5 Å; both purified
[4] = target: T3, Pan3 (S. cerevisiae, C-terminal deca-histidine tag) (S. cerevisiae); assay: co-purification (IMAC, ion exchange, gel filtration); Pan2 and Pan3 variants co-expressed in insect cells; purified via the C-terminal deca-histidine tag on Pan3, then Mono Q and Superdex200 (20 mM HEPES pH 7.5, 200 mM NaCl)
[5] = target: T4, Pan3Δ(1–138) (S. cerevisiae); assay: as above

binding [1]	binding [2]	binding [3]	binding [4]	binding [5]	Binder
binds	binds	binds			Pan2cat (Pan2 Asp1020Ala mutant) (enzyme, UniProt P53010 1-1115) MNNWQHFFNNPVDLSEHLKKPYFRFDNRDKEITAISFDEKANLIWSGDSYGCISSYDPTFQLYTRYRGHIGGNSVKDILSHRDGILSISEDSLHFANRRGVTKLNLTSIDIAAFSELNTMCYSPHSLKNNIYCGGDNTNWGIASIDLNRGCLDSLLNYSSKVKLMCSNNKVLSIGRQTGTVDLLDPTSNRTIKSFNAHSASISAMDLRDNTLVTVGKSKRFYNLYADPFVNVYDLRTMRQLPPVSFSKGTTMGSGGADFVQLHPLLPTVMIVASSSGSFDFIDLSNPTLRTQYVHPCQSIKKLCLSPNGDVLGILEADNHLDTWRRSSNNMGMFTNTPEMLAYPDYFNDITSDGPISVDDETYPLSSVGMPYYLDKLLSAWPPVVFKSEGTIPQLTGKSPLPSSGKLKSNLAVISSQNEKLSTQEFPLLRYDRTKYGMRNAIPDYVCLRDIRKQITSGLETSDIQTYTSINKYEVPPAYSRLPLTSGRFGTDNFDFTPFNNTEYSGLDPDVDNHYTNAIIQLYRFIPEMFNFVVGCLKDENFETTLLTDLGYLFDMMERSHGKICSSSNFQASLKSLTDKRQLENGEPQEHLEEYLESLCIRESIEDFNSSESIKRNMPQKFNRFLLSQLIKEEAQTVNHNITLNQCFGLETEIRTECSCDHYDTTVKLLPSLSISGINKTVIKQLNKKSNGQNILPYIEYAMKNVTQKNSICPTCGKTETITQECTVKNLPSVLSLELSLLDTEFSNIRSSKNWLTSEFYGSIIKNKAVLRSTASELKGTSHIFKYELNGYVAKITDNNNETRLVTYVKKYNPKENCFKWLMFNDYLVVEITEEEALKMTYPWKTPEIIIYCDAEELRKPFFSVDTYSINYDILFRDYFANGIRDTARREYKLLTHDEAPKSGTLVAIDAEFVSLQSELCEIDHQGIRSIIRPKRTALARISIIRGEEGELYGVPFVDDYVVNTNHIEDYLTRYSGILPGDLDPEKSTKRLVRRNVVYRKVWLLMQLGCVFVGHGLNNAFKHININVPRNQIRDTAIYFLQGKRYLSLRYLAYVLLGMNIQEGNHDSIEDAHTALILYKKYLHLKEKAIFEKVLNSVYEEGRAHNFKVPETSKG
			binds	binds	Pan2 (wild-type S. cerevisiae) (enzyme, UniProt P53010 1-1115) MNNWQHFFNNPVDLSEHLKKPYFRFDNRDKEITAISFDEKANLIWSGDSYGCISSYDPTFQLYTRYRGHIGGNSVKDILSHRDGILSISEDSLHFANRRGVTKLNLTSIDIAAFSELNTMCYSPHSLKNNIYCGGDNTNWGIASIDLNRGCLDSLLNYSSKVKLMCSNNKVLSIGRQTGTVDLLDPTSNRTIKSFNAHSASISAMDLRDNTLVTVGKSKRFYNLYADPFVNVYDLRTMRQLPPVSFSKGTTMGSGGADFVQLHPLLPTVMIVASSSGSFDFIDLSNPTLRTQYVHPCQSIKKLCLSPNGDVLGILEADNHLDTWRRSSNNMGMFTNTPEMLAYPDYFNDITSDGPISVDDETYPLSSVGMPYYLDKLLSAWPPVVFKSEGTIPQLTGKSPLPSSGKLKSNLAVISSQNEKLSTQEFPLLRYDRTKYGMRNAIPDYVCLRDIRKQITSGLETSDIQTYTSINKYEVPPAYSRLPLTSGRFGTDNFDFTPFNNTEYSGLDPDVDNHYTNAIIQLYRFIPEMFNFVVGCLKDENFETTLLTDLGYLFDMMERSHGKICSSSNFQASLKSLTDKRQLENGEPQEHLEEYLESLCIRESIEDFNSSESIKRNMPQKFNRFLLSQLIKEEAQTVNHNITLNQCFGLETEIRTECSCDHYDTTVKLLPSLSISGINKTVIKQLNKKSNGQNILPYIEYAMKNVTQKNSICPTCGKTETITQECTVKNLPSVLSLELSLLDTEFSNIRSSKNWLTSEFYGSIIKNKAVLRSTASELKGTSHIFKYELNGYVAKITDNNNETRLVTYVKKYNPKENCFKWLMFNDYLVVEITEEEALKMTYPWKTPEIIIYCDAEELRKPFFSVDTYSINYDILFRDYFANGIRDTARREYKLLTHDEAPKSGTLVAIDAEFVSLQSELCEIDHQGIRSIIRPKRTALARISIIRGEEGELYGVPFVDDYVVNTNHIEDYLTRYSGILPGDLDPEKSTKRLVRRNVVYRKVWLLMQLGCVFVGHGLNNDFKHININVPRNQIRDTAIYFLQGKRYLSLRYLAYVLLGMNIQEGNHDSIEDAHTALILYKKYLHLKEKAIFEKVLNSVYEEGRAHNFKVPETSKG
